# Article PMC12038233
# Construct, isoform or probe ends are uncertain for at least one entry. For some of these results: Negatives hold for the conditions tested. For some of these results: A weaker result is weaker than the reference pair of the same experiment.
# How the values were obtained:
# [1] = test system: CiWRKY27 (Citrus ichangensis (Ichang papeda)); assay: EMSA; conditions: Chemiluminescent EMSA kit (Beyotime), manufacturer's manual; pH and temperature not stated; recombinant protein; protein details: His (pHMGWA vector); label: biotin
# [2] = test system: CiWRKY27 (Citrus ichangensis (Ichang papeda)); assay: competition with a labelled probe; conditions: dose-dependent competition against labeled P2 probe; Chemiluminescent EMSA kit (Beyotime), manufacturer's manual; pH and temperature not stated; recombinant protein; protein details: His (pHMGWA vector)
sequence,measurement,setting,value
ATAATTTCTTGGGTCAATCATTACTCTCTTATAATTACAA (double strand) [SPDS1-W2-probe (P2)],binding result,[1],binds
TATTTAATTCGTTTAAAGGGTCAAAAAAATTAAAGAAAGT (double strand) [SPDS1-W1-probe (P1)],binding result,[1],no binding
ATAATTTCTTGGGGCAATCATTACTCTCTTATAATTACAA (double strand) [mutant-SPDS1-W2-probe],binding result,[1],binds more weakly
ATAATTTCTTGGGTCAATCATTACTCTCTTATAATTACAA (double strand) [SPDS1-W2 unlabeled competitor],binding result,[2],binds
